The test system of the series is Flp-In T-REx 293 cells. Briefly: Intracellular localization of HA-tagged full-length Bax and K189/K190 mutants, immunoblot of cytosolic and mitochondrial lysates. It counts as cell-based. The following applies: for Localization of full-length Bax among cytosolic and mitochondrial lysates: HA-tagged Bax, Flp-In T-Rex 293 cells, immunoblot; for Cellular Localization: full-length Bax, residues 189-192 mutated, Flp-In T-REx 293 cells.

“Bax-DD: full-length Bax, K189/K190 substituted with aspartic acid”: the “Localization of full-length Bax among cytosolic and mitochondrial lysates” value is recorded as “cytosolic retention”; the “Cellular Localization” value is on record as “Cytosol”.
For the molecule “Bax-EE: full-length Bax, K189/K190 substituted with glutamic acid”, the “Localization of full-length Bax among cytosolic and mitochondrial lysates” value was “cytosolic retention”; the “Cellular Localization” value is given as “Cytosol”.
For “Bax-EK: full-length Bax, mutation of K189”, the “Localization of full-length Bax among cytosolic and mitochondrial lysates” value is on record as “cytosolic”; the “Cellular Localization” value is “Cytosol”.
For the molecule “Bax-KK: full-length, wild-type HA-tagged Bax”, the “Localization of full-length Bax among cytosolic and mitochondrial lysates” value is “distributed among cytosolic and mitochondrial lysates”; the “Cellular Localization” value is listed as “Cyto > Mito”.
Consider “Bax-LL: full-length Bax, K189/K190 substituted with leucine”, for which the “Localization of full-length Bax among cytosolic and mitochondrial lysates” value is reported as “mitochondrial association”; the “Cellular Localization” value was “Mito”.
Turning to “Bax-QQ: full-length Bax, K189/K190 substituted with glutamine”, the “Cellular Localization” value is “Cyto = Mito”.
For “Bax-RR: full-length Bax, K189/K190 substituted with arginine”, the “Localization of full-length Bax among cytosolic and mitochondrial lysates” value was “mitochondrial localization”; the “Cellular Localization” value is reported as “Mito”.
In the case of “KEMK: full-length Bax, residues 189-192 printed KEMK, SEQ ID NO 59”, the “Cellular Localization” value is “Cytosol”.
Regarding “KLMG: full-length Bax, residues 189-192 KLMG, SEQ ID NO 56”, the “Cellular Localization” value is given as “Mito”.
Same read-out and setting: then “LKMG: full-length Bax, residues 189-192 LKMG, SEQ ID NO 55”, with “Mito”.

B1: Bax-KMGK: full-length Bax, rearrangement of C-terminal residues to KMGK (protein, UniProt Q07812 1-192, looked up, variant K190M M191G G192K)
Apoptosis regulator BAX: MDGSGEQPRGGGPTSSEQIMKTGALLLQGFIQDRAGRMGGEAPELALDPVPQDASTKKLSECLKRIGDELDSNMELQRMIAAVDTDSPREVFFRVAADMFSDGNFNWGRVVALFYFASKLVLKALCTKVPELIRTIMGWTLDFLRERLLGWIQDQGGWDGLLSYFGTPTWQTVTIFVAGVLTASLTIWKMGK
As for B1, the “Cellular Localization” value was “Cyto = Mito”.

These data come from patent US11179436B2, “Methods and compositions comprising a C-terminal Bax peptide” (University of Central Florida Research Foundation, Inc., priority 2011, dated 2021).
